The other results are listed elsewhere or left out. The data scatter; read single values as rough.
What was measured:
[1] = compound: ClCC(=O)N[C@@H]1CCCc2ccccc12; assay: log2 mean competition ratio of IA-DTB cysteine labelling (DMSO/compound) (log2 ratio); higher = stronger cysteine engagement by compound; conditions: treatment time: 4 h, cell line lysate: HEK293T
Protocol: (§1)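 IA-DTB competitive cysteine chemoproteomics in HEK293T RIPA lysate. Lysates were treated with compound 29 or 30 at 50 or 200 µM for 4 h, then IA-DTB (500 µM, 1 h), trypsin-digested, NeutrAvidin-enriched and analysed by diaPASEF. Competition ratio = intensity DMSO / intensity compound (n=4 treated, n=64 DMSO); binding: mean log2 CR ≥ 1 and p ≤ 0.05 plus QC filters. Target is the cysteine site.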

By UniProt entry, the sequences of proteins in these tests, tags left out. Where a name states a change or a piece, a line headed by the entry shows the natural chain unless it says otherwise. Residues count along the entry.
UniProt O94819: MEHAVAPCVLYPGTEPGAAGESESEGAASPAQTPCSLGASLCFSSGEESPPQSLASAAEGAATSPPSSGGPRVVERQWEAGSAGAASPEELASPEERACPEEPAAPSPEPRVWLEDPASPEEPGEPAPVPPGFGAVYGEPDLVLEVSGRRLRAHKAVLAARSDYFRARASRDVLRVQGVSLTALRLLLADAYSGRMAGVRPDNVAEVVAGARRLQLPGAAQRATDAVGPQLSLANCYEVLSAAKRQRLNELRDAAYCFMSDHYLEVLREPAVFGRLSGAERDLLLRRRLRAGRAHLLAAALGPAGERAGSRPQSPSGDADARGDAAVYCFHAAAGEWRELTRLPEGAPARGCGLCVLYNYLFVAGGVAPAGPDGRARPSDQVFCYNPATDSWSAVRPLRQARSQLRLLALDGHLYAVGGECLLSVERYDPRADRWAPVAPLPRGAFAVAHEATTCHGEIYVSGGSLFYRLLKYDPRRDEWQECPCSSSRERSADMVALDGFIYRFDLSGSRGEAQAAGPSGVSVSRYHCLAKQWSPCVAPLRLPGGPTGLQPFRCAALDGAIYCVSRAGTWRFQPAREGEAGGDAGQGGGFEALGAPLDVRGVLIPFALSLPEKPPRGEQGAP
UniProt Q02241: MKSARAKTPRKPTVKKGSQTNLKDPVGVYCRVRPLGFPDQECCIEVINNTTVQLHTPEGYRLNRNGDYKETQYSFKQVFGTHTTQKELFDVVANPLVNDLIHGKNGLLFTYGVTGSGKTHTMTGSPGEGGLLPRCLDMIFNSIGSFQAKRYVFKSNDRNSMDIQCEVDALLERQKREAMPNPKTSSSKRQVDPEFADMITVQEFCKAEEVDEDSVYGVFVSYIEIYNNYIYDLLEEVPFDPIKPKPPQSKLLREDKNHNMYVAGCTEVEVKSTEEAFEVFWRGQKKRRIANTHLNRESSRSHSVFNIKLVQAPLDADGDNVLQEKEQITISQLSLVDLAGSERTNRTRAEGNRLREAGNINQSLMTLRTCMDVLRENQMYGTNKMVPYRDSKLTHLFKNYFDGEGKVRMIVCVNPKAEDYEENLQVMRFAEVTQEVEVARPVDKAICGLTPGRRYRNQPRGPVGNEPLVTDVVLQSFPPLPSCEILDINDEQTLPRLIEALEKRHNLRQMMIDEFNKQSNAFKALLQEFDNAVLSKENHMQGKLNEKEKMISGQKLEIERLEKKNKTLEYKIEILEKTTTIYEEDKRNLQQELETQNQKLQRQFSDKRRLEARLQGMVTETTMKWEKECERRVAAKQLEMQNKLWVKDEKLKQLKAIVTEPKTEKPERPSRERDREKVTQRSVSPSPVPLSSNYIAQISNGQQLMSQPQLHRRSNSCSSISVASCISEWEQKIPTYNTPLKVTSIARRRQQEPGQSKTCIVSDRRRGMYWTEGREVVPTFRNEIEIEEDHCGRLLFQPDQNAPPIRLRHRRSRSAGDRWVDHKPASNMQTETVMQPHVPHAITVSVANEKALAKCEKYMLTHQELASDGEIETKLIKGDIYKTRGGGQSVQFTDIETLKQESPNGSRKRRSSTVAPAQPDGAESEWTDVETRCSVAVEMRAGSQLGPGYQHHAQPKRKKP
UniProt O75164: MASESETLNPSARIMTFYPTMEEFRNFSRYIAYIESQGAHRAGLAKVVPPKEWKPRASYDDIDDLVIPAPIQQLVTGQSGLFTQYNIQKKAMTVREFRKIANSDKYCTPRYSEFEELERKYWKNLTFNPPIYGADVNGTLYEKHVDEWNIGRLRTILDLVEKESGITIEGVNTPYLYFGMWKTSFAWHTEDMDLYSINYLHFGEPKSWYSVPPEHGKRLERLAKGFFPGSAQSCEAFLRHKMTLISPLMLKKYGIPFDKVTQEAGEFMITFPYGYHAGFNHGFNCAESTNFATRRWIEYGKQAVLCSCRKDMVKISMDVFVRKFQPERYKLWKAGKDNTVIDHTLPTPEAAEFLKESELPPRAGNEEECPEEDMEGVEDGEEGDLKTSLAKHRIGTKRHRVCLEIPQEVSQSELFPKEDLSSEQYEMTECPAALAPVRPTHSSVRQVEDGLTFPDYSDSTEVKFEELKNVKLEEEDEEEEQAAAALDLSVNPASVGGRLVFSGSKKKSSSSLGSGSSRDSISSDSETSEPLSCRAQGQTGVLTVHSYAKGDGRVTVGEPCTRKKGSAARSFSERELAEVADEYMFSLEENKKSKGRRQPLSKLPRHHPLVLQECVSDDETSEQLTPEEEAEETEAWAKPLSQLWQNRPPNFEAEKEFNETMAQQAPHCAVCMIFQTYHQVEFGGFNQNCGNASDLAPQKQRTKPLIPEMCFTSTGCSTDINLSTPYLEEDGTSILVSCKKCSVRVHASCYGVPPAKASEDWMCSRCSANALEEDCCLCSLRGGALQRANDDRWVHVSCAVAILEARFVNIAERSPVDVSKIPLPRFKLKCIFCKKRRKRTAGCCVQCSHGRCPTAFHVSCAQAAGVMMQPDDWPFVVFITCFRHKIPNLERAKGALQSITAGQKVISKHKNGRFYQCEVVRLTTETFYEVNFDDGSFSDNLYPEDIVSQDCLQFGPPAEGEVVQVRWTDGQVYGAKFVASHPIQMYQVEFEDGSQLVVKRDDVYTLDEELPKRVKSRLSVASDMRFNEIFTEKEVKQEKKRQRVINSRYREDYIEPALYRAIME
UniProt Q7L273: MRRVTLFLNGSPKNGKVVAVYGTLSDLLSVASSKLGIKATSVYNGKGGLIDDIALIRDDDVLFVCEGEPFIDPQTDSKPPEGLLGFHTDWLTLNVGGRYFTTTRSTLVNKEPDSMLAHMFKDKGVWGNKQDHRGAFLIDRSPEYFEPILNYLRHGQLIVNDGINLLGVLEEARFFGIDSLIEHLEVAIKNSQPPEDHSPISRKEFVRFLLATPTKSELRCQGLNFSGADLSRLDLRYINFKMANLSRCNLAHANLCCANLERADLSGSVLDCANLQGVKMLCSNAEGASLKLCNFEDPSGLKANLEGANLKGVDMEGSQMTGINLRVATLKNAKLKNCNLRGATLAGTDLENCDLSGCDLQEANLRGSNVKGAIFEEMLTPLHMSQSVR
UniProt Q15058: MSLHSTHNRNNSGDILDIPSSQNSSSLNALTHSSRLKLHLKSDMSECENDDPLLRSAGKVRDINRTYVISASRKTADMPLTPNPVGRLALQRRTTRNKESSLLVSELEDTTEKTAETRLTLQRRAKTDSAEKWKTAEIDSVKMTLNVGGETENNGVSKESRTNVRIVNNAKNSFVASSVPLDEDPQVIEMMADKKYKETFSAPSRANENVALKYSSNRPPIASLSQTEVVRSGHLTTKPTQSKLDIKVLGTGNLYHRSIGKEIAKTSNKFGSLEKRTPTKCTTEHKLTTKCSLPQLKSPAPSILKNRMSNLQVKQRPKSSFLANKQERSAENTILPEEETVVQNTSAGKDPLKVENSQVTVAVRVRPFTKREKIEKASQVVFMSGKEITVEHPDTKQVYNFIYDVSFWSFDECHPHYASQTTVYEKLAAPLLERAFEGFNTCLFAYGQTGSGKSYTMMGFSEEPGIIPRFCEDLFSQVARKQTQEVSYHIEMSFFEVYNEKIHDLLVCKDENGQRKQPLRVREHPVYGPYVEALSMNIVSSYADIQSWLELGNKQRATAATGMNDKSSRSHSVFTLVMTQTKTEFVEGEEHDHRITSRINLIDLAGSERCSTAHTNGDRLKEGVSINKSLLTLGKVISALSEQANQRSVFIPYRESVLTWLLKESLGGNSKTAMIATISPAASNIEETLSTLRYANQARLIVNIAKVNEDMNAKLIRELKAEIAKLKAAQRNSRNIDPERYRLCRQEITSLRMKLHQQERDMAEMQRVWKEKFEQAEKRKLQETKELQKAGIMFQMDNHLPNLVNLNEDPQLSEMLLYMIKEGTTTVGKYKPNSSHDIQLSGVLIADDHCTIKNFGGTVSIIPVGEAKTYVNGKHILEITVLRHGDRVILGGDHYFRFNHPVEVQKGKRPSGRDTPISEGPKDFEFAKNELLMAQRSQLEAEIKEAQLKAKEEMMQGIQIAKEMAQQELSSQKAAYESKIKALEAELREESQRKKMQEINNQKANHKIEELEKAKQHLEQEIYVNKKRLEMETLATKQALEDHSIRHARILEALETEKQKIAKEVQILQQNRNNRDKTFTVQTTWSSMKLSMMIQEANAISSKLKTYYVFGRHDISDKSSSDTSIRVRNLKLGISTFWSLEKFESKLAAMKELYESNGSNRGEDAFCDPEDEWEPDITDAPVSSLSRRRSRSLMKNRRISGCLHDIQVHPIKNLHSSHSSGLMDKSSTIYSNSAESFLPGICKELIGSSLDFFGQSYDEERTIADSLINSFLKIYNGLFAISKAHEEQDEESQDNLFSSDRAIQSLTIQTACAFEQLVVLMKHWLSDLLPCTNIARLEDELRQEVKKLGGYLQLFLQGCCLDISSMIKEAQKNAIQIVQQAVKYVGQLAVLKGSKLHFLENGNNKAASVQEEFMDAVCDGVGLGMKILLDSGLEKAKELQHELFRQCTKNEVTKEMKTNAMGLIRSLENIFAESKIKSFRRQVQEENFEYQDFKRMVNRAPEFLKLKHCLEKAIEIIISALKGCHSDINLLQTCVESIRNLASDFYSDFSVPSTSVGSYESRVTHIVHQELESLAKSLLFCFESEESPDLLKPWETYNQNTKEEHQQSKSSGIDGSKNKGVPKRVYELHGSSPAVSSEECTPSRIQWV
UniProt O00180, 317-336: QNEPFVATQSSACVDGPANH
UniProt Q9Y4C1: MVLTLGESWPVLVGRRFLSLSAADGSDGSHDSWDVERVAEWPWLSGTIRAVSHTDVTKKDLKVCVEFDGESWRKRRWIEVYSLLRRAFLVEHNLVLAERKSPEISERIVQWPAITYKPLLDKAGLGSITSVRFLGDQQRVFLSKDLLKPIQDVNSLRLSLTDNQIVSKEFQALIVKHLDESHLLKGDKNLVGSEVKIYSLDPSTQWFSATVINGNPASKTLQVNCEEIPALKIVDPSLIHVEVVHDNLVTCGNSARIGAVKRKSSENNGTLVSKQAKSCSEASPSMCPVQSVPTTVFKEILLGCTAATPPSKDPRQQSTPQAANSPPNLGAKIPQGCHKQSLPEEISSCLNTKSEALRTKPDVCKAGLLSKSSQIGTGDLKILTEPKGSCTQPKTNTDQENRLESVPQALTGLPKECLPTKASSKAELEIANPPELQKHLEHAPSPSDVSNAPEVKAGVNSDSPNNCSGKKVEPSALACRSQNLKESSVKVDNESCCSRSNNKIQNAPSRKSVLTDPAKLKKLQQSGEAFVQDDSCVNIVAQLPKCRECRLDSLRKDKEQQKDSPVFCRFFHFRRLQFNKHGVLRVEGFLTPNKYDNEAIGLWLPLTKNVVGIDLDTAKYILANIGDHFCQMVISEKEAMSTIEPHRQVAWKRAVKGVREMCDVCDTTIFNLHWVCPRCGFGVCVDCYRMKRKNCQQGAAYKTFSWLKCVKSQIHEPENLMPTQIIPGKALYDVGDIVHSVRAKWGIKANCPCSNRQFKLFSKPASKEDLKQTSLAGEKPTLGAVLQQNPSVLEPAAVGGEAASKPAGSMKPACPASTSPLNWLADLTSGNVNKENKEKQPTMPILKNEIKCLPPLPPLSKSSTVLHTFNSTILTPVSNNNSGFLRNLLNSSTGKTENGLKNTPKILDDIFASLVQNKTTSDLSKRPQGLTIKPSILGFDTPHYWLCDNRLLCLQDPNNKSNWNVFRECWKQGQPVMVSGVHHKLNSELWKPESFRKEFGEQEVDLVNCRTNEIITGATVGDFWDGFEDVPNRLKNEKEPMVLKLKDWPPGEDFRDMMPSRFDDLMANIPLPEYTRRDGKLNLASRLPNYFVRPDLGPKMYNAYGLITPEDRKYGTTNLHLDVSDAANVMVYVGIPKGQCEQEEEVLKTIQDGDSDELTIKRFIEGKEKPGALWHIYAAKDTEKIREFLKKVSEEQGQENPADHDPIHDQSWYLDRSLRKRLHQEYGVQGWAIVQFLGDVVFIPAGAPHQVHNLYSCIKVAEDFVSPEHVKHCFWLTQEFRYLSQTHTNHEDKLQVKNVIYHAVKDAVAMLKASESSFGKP
UniProt Q92993, 123-145: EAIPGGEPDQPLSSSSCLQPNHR

[2] = compound: ClCC(=O)N[C@H]1CCCc2ccccc12; assay: as above; conditions: treatment time: 4 h, cell line lysate: HEK293T
Protocol: as §1

Target	log2 mean competition ratio ([1]; 50 µM)	log2 mean competition ratio ([1]; 200 µM)	log2 mean competition ratio ([2]; 50 µM)	log2 mean competition ratio ([2]; 200 µM)
KBTBD11 C99 (UniProt O94819)	-0.256	0.0618	-0.147	-0.128
KIF1C C229 (UniProt O43896)	-0.0927	-0.0687	-0.23	-0.157
KIF23 C447 (UniProt Q02241)	-0.0356	-0.224	0.342	-0.159
KDM4A C560 (UniProt O75164)	-0.0733	0.0879	0.188	0.0794
KCTD9 C282 (UniProt Q7L273)	-0.105	0.0665	-0.449	-0.14
KIF14 C291 (UniProt Q15058)	-0.00383	0.168	0.164	0.191
KCNK1 C329 (UniProt O00180)	-0.37	-0.168	-0.336	0.215
KDM3A C364 (UniProt Q9Y4C1)	0.0556	-0.0679	0.247	0.254
KAT6A C1187	-0.0113	-0.144	0.211	-0.237
JMJD1C C508 (UniProt Q15652)	-0.175	-0.307	-0.457	-0.163
ITPR3 C2668 (UniProt Q14573)	0.0578	0.13	-0.0183	-0.0155
KDM5C C305 (UniProt P41229)	-0.0512	-0.105	-0.141	-0.137
KAT5 C139 (UniProt Q92993)	-0.187	0.461	-0.185	0.265
KANSL3 C161 (UniProt Q9P2N6)	-0.00826	-0.0668	0.117	-0.0925
KIF23 C791 (UniProt Q02241)	-0.0939	0.278	-0.124	0.194
KARS1 C427 (UniProt Q15046)	-0.369	-0.0817	-0.107	-0.0482

An excerpt from the list above:
Target	log2 mean competition ratio ([1]; 50 µM)	log2 mean competition ratio ([1]; 200 µM)	log2 mean competition ratio ([2]; 50 µM)	log2 mean competition ratio ([2]; 200 µM)
KIF23 C447 (UniProt Q02241)	-0.0356	-0.224	0.342	-0.159
KDM4A C560 (UniProt O75164)	-0.0733	0.0879	0.188	0.0794

From the supplement of paper PMC11732987, “Enantioselective OTUD7B fragment discovery through chemoproteomics screening and high-throughput optimisation” (Communications Chemistry, 2025)
